# The list shows a part of the results.
# B1: SJCP1084 (Schistosoma japonicum) (protein)
# chain: MRIINLVIISTALLLINLLQTKSQANGEDTKNGTPDDPGLTKSTELKVEVQALLKDKKTNMRVKWNENLLDNTKPEYHNLRDEACELLLQIVRSVVPLSQDDGECKDVTFTKYVVGTKDGAVNVKLTITFKDSVAINQKPMDLKLKLENDFKNLQSESTLKATKPTFTVKVEKRLIPISKPQTTPPTTAKNDASKENVGDIGGEDSTVPTAAPATAASANEEKDEGDKDNKDSQHPNVLTSNVNDRNLIIALVALMILAIGVALTAAVKQR
# Legend:
# Experiment in all cases: glycan array binding signal (z-score within array); higher = stronger binding
# Details in all cases: glycan notation: IUPAC condensed, linker removed
# [1] = biological target: Neu5Ac(a2-3)Gal(b1-4)GlcNAc(b1-2)[Neu5Ac(a2-3)Gal(b1-4)GlcNAc(b1-4)]Man(a1-3)[GlcNAc(b1-4)][Neu5Ac(a2-3)Gal(b1-4)GlcNAc(b1-2)[Neu5Ac(a2-3)Gal(b1-4)GlcNAc(b1-6)]Man(a1-6)]Man(b1-4)GlcNAc(b1-4)GlcNAc
# Procedure, shortened: (§1)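 Glycan array data came from 3228 arrays in the Consortium for Functional Glycomics database, and only arrays with an available protein sequence were kept. Glycan names were put into IUPAC-condensed notation, and columns mapping to the same glycan were averaged. The binding signal is a within-array Z-score, averaged across arrays of one protein sequence run at different concentrations or buffers and across linkers. A negative Z-score can be read as non-binding.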
# [2] = biological target: Neu5Ac(a2-3)Gal(b1-4)GlcNAc(b1-2)[Neu5Ac(a2-3)Gal(b1-4)GlcNAc(b1-4)]Man(a1-3)[GlcNAc(b1-4)][Neu5Ac(a2-3)Gal(b1-4)GlcNAc(b1-4)Man(a1-6)]Man(b1-4)GlcNAc(b1-4)GlcNAc
# Procedure, shortened: as §1
# [3] = biological target: Neu5Ac(a2-3)Gal(b1-4)GlcNAc(b1-2)[Neu5Ac(a2-3)Gal(b1-4)GlcNAc(b1-6)]Man(a1-6)[Neu5Ac(a2-3)Gal(b1-4)GlcNAc(b1-2)Man(a1-3)][GlcNAc(b1-4)]Man(b1-4)GlcNAc(b1-4)GlcNAc
# Procedure, shortened: as §1
# [4] = biological target: Neu5Ac(a2-3)Gal(b1-4)GlcNAc(b1-3)Gal
# Procedure, shortened: as §1
# [5] = biological target: Neu5Ac(a2-3)Gal(b1-4)GlcNAc(b1-3)Gal(b1-3)GlcNAc
# Procedure, shortened: as §1
# [6] = biological target: Neu5Ac(a2-3)Gal(b1-4)GlcNAc(b1-3)Gal(b1-4)GlcNAc
# Procedure, shortened: as §1
# [7] = biological target: Neu5Ac(a2-3)Gal(b1-4)GlcNAc(b1-3)Gal(b1-4)GlcNAc(b1-2)Man(a1-3)[Neu5Ac(a2-3)Gal(b1-4)GlcNAc(b1-3)Gal(b1-4)GlcNAc(b1-2)Man(a1-6)]Man(b1-4)GlcNAc(b1-4)GlcNAc
# Procedure, shortened: as §1
# [8] = biological target: Neu5Ac(a2-3)Gal(b1-4)GlcNAc(b1-3)Gal(b1-4)GlcNAc(b1-3)Gal(b1-4)GlcNAc
# Procedure, shortened: as §1
# [9] = biological target: Neu5Ac(a2-3)Gal(b1-4)GlcNAc(b1-3)Gal(b1-4)GlcNAc(b1-3)Gal(b1-4)GlcNAc(b1-2)Man(a1-3)[Neu5Ac(a2-3)Gal(b1-4)GlcNAc(b1-3)Gal(b1-4)GlcNAc(b1-3)Gal(b1-4)GlcNAc(b1-2)Man(a1-6)]GalNAc
# Procedure, shortened: as §1
# [10] = biological target: Neu5Ac(a2-3)Gal(b1-4)GlcNAc(b1-3)Gal(b1-4)GlcNAc(b1-3)GalNAc
# Procedure, shortened: as §1
# [11] = biological target: Neu5Ac(a2-3)Gal(b1-4)GlcNAc(b1-3)Gal(b1-4)GlcNAc(b1-3)[Neu5Ac(a2-3)Gal(b1-4)GlcNAc(b1-3)Gal(b1-4)GlcNAc(b1-6)]GalNAc
# Procedure, shortened: as §1
# [12] = biological target: Neu5Ac(a2-3)Gal(b1-4)GlcNAc(b1-3)Gal(b1-4)GlcNAc(b1-6)[Gal(b1-3)]GalNAc
# Procedure, shortened: as §1
# [13] = biological target: Neu5Ac(a2-3)Gal(b1-4)GlcNAc(b1-3)Gal(b1-4)[Fuc(a1-3)]GlcNAc
# Procedure, shortened: as §1
# [14] = biological target: Neu5Ac(a2-3)Gal(b1-4)GlcNAc(b1-3)GalNAc
# Procedure, shortened: as §1
# [15] = biological target: Neu5Ac(a2-3)Gal(b1-4)GlcNAc(b1-3)[Neu5Ac(a2-3)Gal(b1-4)GlcNAc(b1-6)]GalNAc
# Procedure, shortened: as §1
# [16] = biological target: Neu5Ac(a2-3)Gal(b1-4)GlcNAc(b1-6)GalNAc
# Procedure, shortened: as §1
# [17] = biological target: Neu5Ac(a2-3)Gal(b1-4)GlcNAc(b1-6)[Gal(b1-3)]GalNAc
# Procedure, shortened: as §1
# [18] = biological target: Neu5Ac(a2-3)Gal(b1-4)GlcNAc(b1-6)[Neu5Ac(a2-3)Gal(b1-3)]GalNAc
# Procedure, shortened: as §1
# [19] = biological target: Neu5Ac(a2-3)Gal(b1-4)GlcNAc6S
# Procedure, shortened: as §1
# [20] = biological target: Neu5Ac(a2-3)Gal(b1-4)[Fuc(a1-3)]GlcNAc
# Procedure, shortened: as §1
# [21] = biological target: Neu5Ac(a2-3)Gal(b1-4)[Fuc(a1-3)]GlcNAc(b1-2)Man
# Procedure, shortened: as §1
# [22] = biological target: Neu5Ac(a2-3)Gal(b1-4)[Fuc(a1-3)]GlcNAc(b1-3)Gal
# Procedure, shortened: as §1
# [23] = biological target: Neu5Ac(a2-3)Gal(b1-4)[Fuc(a1-3)]GlcNAc(b1-3)Gal(b1-4)GlcNAc
# Procedure, shortened: as §1
# [24] = biological target: Neu5Ac(a2-3)Gal(b1-4)[Fuc(a1-3)]GlcNAc(b1-3)Gal(b1-4)[Fuc(a1-3)]GlcNAc(b1-3)Gal(b1-4)[Fuc(a1-3)]GlcNAc
# Procedure, shortened: as §1
# [25] = biological target: Neu5Ac(a2-3)Gal(b1-4)[Fuc(a1-3)]GlcNAc(b1-3)GalNAc
# Procedure, shortened: as §1
# [26] = biological target: Neu5Ac(a2-3)Gal(b1-4)[Fuc(a1-3)]GlcNAc(b1-6)[Gal(b1-3)]GalNAc
# Procedure, shortened: as §1
# [27] = biological target: Neu5Ac(a2-3)Gal(b1-4)[Fuc(a1-3)]GlcNAc(b1-6)[Neu5Ac(a2-3)Gal(b1-3)]GalNAc
# Procedure, shortened: as §1
# [28] = biological target: Neu5Ac(a2-3)Gal(b1-4)[Fuc(a1-3)]GlcNAc6S
# Procedure, shortened: as §1
# [29] = biological target: Neu5Ac(a2-3)Gal6S(b1-4)GlcNAc
# Procedure, shortened: as §1
# [30] = biological target: Neu5Ac(a2-3)Gal6S(b1-4)[Fuc(a1-3)]GlcNAc
# Procedure, shortened: as §1
# [31] = biological target: Neu5Ac(a2-3)GalNAc
# Procedure, shortened: as §1
# [32] = biological target: Neu5Ac(a2-3)GalNAc(b1-4)GlcNAc
# Procedure, shortened: as §1
# [33] = biological target: Neu5Ac(a2-3)[GalNAc(b1-4)]Gal(b1-4)Glc
# Procedure, shortened: as §1
# [34] = biological target: Neu5Ac(a2-3)[GalNAc(b1-4)]Gal(b1-4)GlcNAc
# Procedure, shortened: as §1
# [35] = biological target: Neu5Ac(a2-3)[GalNAc(b1-4)]Gal(b1-4)GlcNAc(b1-3)GalNAc
# Procedure, shortened: as §1
# [36] = biological target: Neu5Ac(a2-3)[Neu5Ac(a2-6)]GalNAc
# Procedure, shortened: as §1
# [37] = biological target: Neu5Ac(a2-6)Gal
# Procedure, shortened: as §1
# [38] = biological target: Neu5Ac(a2-6)Gal(b1-3)GlcNAc(b1-3)[Gal(b1-4)GlcNAc(b1-6)]Gal(b1-4)Glc
# Procedure, shortened: as §1
# [39] = biological target: Neu5Ac(a2-6)Gal(b1-4)Glc
# Procedure, shortened: as §1
# [40] = biological target: Neu5Ac(a2-6)Gal(b1-4)GlcNAc
# Procedure, shortened: as §1
# [41] = biological target: Neu5Ac(a2-6)Gal(b1-4)GlcNAc(b1-2)Man
# Procedure, shortened: as §1
# [42] = biological target: Neu5Ac(a2-6)Gal(b1-4)GlcNAc(b1-2)Man(a1-3)Man(b1-4)GlcNAc(b1-4)GlcNAc
# Procedure, shortened: as §1
# [43] = biological target: Neu5Ac(a2-6)Gal(b1-4)GlcNAc(b1-2)Man(a1-3)[Gal(b1-4)GlcNAc(b1-2)Man(a1-6)]Man(b1-4)GlcNAc(b1-4)GlcNAc
# Procedure, shortened: as §1
# [44] = biological target: Neu5Ac(a2-6)Gal(b1-4)GlcNAc(b1-2)Man(a1-3)[GlcNAc(b1-2)Man(a1-6)]Man(b1-4)GlcNAc(b1-4)GlcNAc
# Procedure, shortened: as §1
# [45] = biological target: Neu5Ac(a2-6)Gal(b1-4)GlcNAc(b1-2)Man(a1-3)[GlcNAc(b1-4)][Neu5Ac(a2-6)Gal(b1-4)GlcNAc(b1-2)Man(a1-6)]Man(b1-4)GlcNAc(b1-4)GlcNAc
# Procedure, shortened: as §1
binder,measurement,setting,value
B1,glycan array binding signal (z-score),[1],-0.667
same,glycan array binding signal (z-score),[2],-0.787
same,glycan array binding signal (z-score),[3],0.321
same,glycan array binding signal (z-score),[4],0.968
same,glycan array binding signal (z-score),[5],-0.757
same,glycan array binding signal (z-score),[6],0.873
same,glycan array binding signal (z-score),[7],-0.701
same,glycan array binding signal (z-score),[8],-0.199
same,glycan array binding signal (z-score),[9],0.289
same,glycan array binding signal (z-score),[10],0.065
same,glycan array binding signal (z-score),[11],-0.2
same,glycan array binding signal (z-score),[12],0.254
same,glycan array binding signal (z-score),[13],-0.263
same,glycan array binding signal (z-score),[14],-0.729
same,glycan array binding signal (z-score),[15],-0.378
same,glycan array binding signal (z-score),[16],-0.741
same,glycan array binding signal (z-score),[17],0.427
same,glycan array binding signal (z-score),[18],-1.15
same,glycan array binding signal (z-score),[19],0.4
same,glycan array binding signal (z-score),[20],-1.17
same,glycan array binding signal (z-score),[21],-0.338
same,glycan array binding signal (z-score),[22],0.594
same,glycan array binding signal (z-score),[23],0.127
same,glycan array binding signal (z-score),[24],0.379
same,glycan array binding signal (z-score),[25],1.42
same,glycan array binding signal (z-score),[26],-0.394
same,glycan array binding signal (z-score),[27],-0.511
same,glycan array binding signal (z-score),[28],-0.23
same,glycan array binding signal (z-score),[29],-0.608
same,glycan array binding signal (z-score),[30],-1.71
same,glycan array binding signal (z-score),[31],-0.344
same,glycan array binding signal (z-score),[32],-0.229
same,glycan array binding signal (z-score),[33],-0.474
same,glycan array binding signal (z-score),[34],-0.641
same,glycan array binding signal (z-score),[35],-0.221
same,glycan array binding signal (z-score),[36],-0.81
same,glycan array binding signal (z-score),[37],0.41
same,glycan array binding signal (z-score),[38],-0.092
same,glycan array binding signal (z-score),[39],-0.667
same,glycan array binding signal (z-score),[40],-0.162
same,glycan array binding signal (z-score),[41],0.296
same,glycan array binding signal (z-score),[42],-0.358
same,glycan array binding signal (z-score),[43],-0.083
same,glycan array binding signal (z-score),[44],1.47
same,glycan array binding signal (z-score),[45],0.136

# Reformatted: results already given.
binder	measurement	setting	value
B1	glycan array binding signal (z-score)	[3]	0.321
same	glycan array binding signal (z-score)	[4]	0.968
same	glycan array binding signal (z-score)	[5]	-0.757
same	glycan array binding signal (z-score)	[6]	0.873

# Source: the supplement of paper PMC8728848
